Source: patent US8772200B2, “Nitrogen-containing heterocyclic compound and agricultural fungicide” (Nippon Soda Co., Ltd., priority 2010, dated 2014)
Some entries share one result that the patent states for a list of compounds. At least one compound was matched to its structure with a doubt left.

What was measured:
[1] = test system: cucumber gray mold bacteria (Botrytis cinerea); test: Control test of cucumber gray mold; settings: emulsion, active ingredient 100 ppm, sprayed on cucumber seedlings before inoculation; held 4 days at 20° C.
[2] = test system: apple scab bacteria (Venturia inaqualis); test: Control test of apple scab; format: in vivo; settings: emulsion, active ingredient 100 ppm, sprayed on apple seedlings before inoculation; held 2 weeks at 20° C.

Structure (SMILES)	protective value [1]	protective value [2]
COC(C)c1c(Oc2cc3cccc(F)c3nc2C)ccc(F)c1Cl (racemic) [compound 183]	at least 75%	at least 75%
c1ccc2ncc(Oc3cccc4ccccc34)cc2c1 [compound 285]	at least 75%	at least 75%
CC(O)(c1ccccc1Oc1cnc2ccccc2c1)C(F)(F)F (stereo not shown) [compound 29]	at least 75%	at least 75%
COC(C)C(F)(F)c1c(F)cccc1Oc1cc2cccc(F)c2nc1C (stereo not shown) [compound 427]	at least 75%	at least 75%
CC(C)(C)C1(O)CCc2cccc(Oc3cnc4c(F)cccc4c3)c21 (stereo not shown) [compound 35]	at least 75%	at least 75%
Cc1nc2ccccc2cc1Oc1cccc(Cl)c1C(C)(C)O [compound 108]	at least 75%	at least 75%
CC(C)(C#N)C(C)(C)c1ccccc1Oc1cnc2ccccc2c1 [compound 232]	at least 75%	at least 75%
CC(C)(O)C(=O)c1c(F)cccc1Oc1cnc2c(F)cccc2c1 [compound 398]	at least 75%	at least 75%
CC(O)CC(C)(C)c1ccccc1Oc1cnc2ccccc2c1 (racemic) [compound 246]	at least 75%	at least 75%
CCC(C)(O)c1c(F)cccc1Oc1cnc2c(F)cccc2c1 (racemic) [compound 48]	at least 75%	at least 75%
CC(O)(Cc1ccc(F)cc1)c1c(F)cccc1Oc1cnc2c(F)cccc2c1 (stereo not shown) [compound 82]	at least 75%	at least 75%
CC(=O)c1sccc1Oc1cnc2c(F)cccc2c1 [c-3]	at least 75%	at least 75%
COC(C)c1c(Br)cccc1Oc1cnc2c(F)cccc2c1 (stereo not shown) [compound 149]	at least 75%	at least 75%
COC(=O)c1cccc(Oc2cnc3c(F)cccc3c2)c1C(C)OC (racemic) [compound 209]	at least 75%	at least 75%
CC(C)(O)c1c(F)cccc1Oc1cnc2ccccc2c1 [compound 43]	at least 75%	at least 75%
Cc1nc2ccccc2cc1Oc1ccccc1C(C)(C)CCO [compound 252]	at least 75%	at least 75%
CC(C)(O)c1ncccc1Oc1cnc2c(F)cccc2c1 [a-8]	at least 75%	at least 75%
CC(C)(O)C1(c2ccccc2Oc2cnc3ccccc3c2)CCCC1 [compound 309]	at least 75%	at least 75%
CC1(O)CCc2cccc(Oc3cnc4c(F)cccc4c3)c21 (stereo not shown) [compound 34]	at least 75%	at least 75%
CC(O)(c1c(F)cccc1Oc1cnc2ccccc2c1)C(F)(F)F (racemic) [compound 111]	at least 75%	at least 75%
Cc1nc2c(F)cccc2cc1Oc1ccc(F)c(Cl)c1C(C)(C)O [compound 110]	at least 75%	at least 75%

Structure (SMILES)	protective value [1]	protective value [2]
CC(=O)C(C)(C)c1c(F)cccc1Oc1cnc2c(F)c(F)ccc2c1 [compound 267]	at least 75%	at least 75%
N#CC1(c2c(F)cccc2Oc2cnc3c(F)cccc3c2)CC1 [compound 310]	at least 75%	at least 75%
CCOC1CCc2cccc(Oc3cnc4ccccc4c3)c21 (stereo not shown) [compound 133]	at least 75%	at least 75%
OCc1c(Br)cccc1Oc1cnc2c(F)cccc2c1 [compound 222]	at least 75%	at least 75%
COC(C)c1c(Oc2cnc3c(F)cccc3c2)ccc(F)c1Cl (racemic) [compound 142]	at least 75%	at least 75%
Fc1cccc(Oc2cnc3ccccc3c2)c1C1(OCc2ccccc2)CC1 [compound 299]	at least 75%	at least 75%
CCC(O)c1c(Cl)cccc1Oc1cnc2c(F)cccc2c1 (stereo not shown) [compound 157]	at least 75%	at least 75%
O=Cc1c(Oc2cnc3c(F)cccc3c2)ccc(F)c1Br [compound 417]	at least 75%	at least 75%
CC(=O)C(F)(F)c1c(F)cccc1Oc1cc2cccc(F)c2nc1C [compound 296]	at least 75%	at least 75%
OCc1c(Cl)cccc1Oc1cnc2c(F)cccc2c1 [compound 219]	at least 75%	at least 75%
C=CCOC(C)c1c(Cl)cccc1Oc1cnc2c(F)cccc2c1 (stereo not shown) [compound 156]	at least 75%	at least 75%
CC(C)(N)c1c(F)cccc1Oc1cnc2c(F)cccc2c1 [compound 435]	at least 75%	at least 75%
Cc1nc2ccccc2cc1Oc1ccccc1C(C)(C)C(C)(C)O [compound 251]	at least 75%	at least 75%
CC(=O)c1c(Cl)cccc1Oc1cnc2c(F)c(F)ccc2c1 [compound 392]	at least 75%	at least 75%
OC(c1c(F)cccc1Oc1cnc2c(F)cccc2c1)(C(F)(F)F)C(F)(F)F [compound 122]	at least 75%	at least 75%
CC(C)(O)c1c(Oc2cnc3ccccc3c2)ccc(F)c1F [compound 119]	at least 75%	at least 75%
CC(C)(O)c1c(F)cccc1Oc1cnc2c(c1)CCCC2 [b-7]	at least 75%	at least 75%
CC(C)(NC(=O)C(F)(F)F)c1c(F)cccc1Oc1cnc2c(F)cccc2c1 [compound 437]	at least 75%	at least 75%
CC(O)c1c(Cl)cccc1Oc1cnc2ccccc2c1 (stereo not shown) [compound 187]	at least 75%	at least 75%
Cc1nc2c(F)cccc2cc1Oc1cccc(F)c1C(F)(F)C(C)(C)O [compound 425]	at least 75%	at least 75%
CN(C)C(C#N)c1c(Cl)cccc1Oc1cnc2c(F)cccc2c1 (racemic) [compound 442]	at least 75%	at least 75%

Structure (SMILES)	protective value [1]	protective value [2]
COC(CC(C)(C)c1ccccc1Oc1cnc2ccccc2c1)OC [compound 247]	at least 75%	at least 75%
OC(Cc1ccccc1)c1c(Cl)cccc1Oc1cnc2c(F)cccc2c1 (stereo not shown) [compound 174]	at least 75%	at least 75%
CC(=O)c1c(F)cccc1Oc1cnc2c(F)c(F)ccc2c1 [compound 391]	at least 75%	at least 75%
CC(C)(O)c1ccccc1Oc1cnc2ccccc2c1 [compound 38]	at least 75%	at least 75%
CCCCC(O)c1c(Cl)cccc1Oc1cnc2c(F)cccc2c1 (stereo not shown) [compound 163]	at least 75%	at least 75%
CC(C)(C)OC(=O)NC(C)(C)c1c(F)cccc1Oc1cnc2c(F)cccc2c1 [compound 433]	at least 75%	at least 75%
CC(=NO)c1c(F)cccc1Oc1cnc2c(F)cccc2c1 [compound 26]	at least 75%	at least 75%
Cc1ccc(S(=O)(=O)OCC(C)(C)c2ccccc2C(=O)c2cnc3ccccc3c2)cc1 [compound 59]	at least 75%	at least 75%
CCC(C)(O)C(F)(F)c1c(F)cccc1Oc1cc2cccc(F)c2nc1C (stereo not shown) [compound 428]	at least 75%	at least 75%
Cc1nc2c(F)cccc2cc1Oc1cccc(F)c1C(C)(C)O [compound 37]	at least 75%	at least 75%
CCC(C)(O)c1c(F)cccc1Oc1cc2cccc(F)c2nc1C (stereo not shown) [compound 88]	at least 75%	at least 75%
Cc1nc2ccccc2cc1Oc1cccc(F)c1C(C)(C)O [compound 107]	at least 75%	at least 75%
CC(C)(O)C(=O)c1c(Cl)cccc1Oc1cnc2c(F)cccc2c1 [compound 376]	at least 75%	at least 75%
CC(C)(O)CC(C)(C)c1ccccc1Oc1cnc2ccccc2c1 [compound 243]	at least 75%	at least 75%
COC(=O)C(O)c1c(Cl)cccc1Oc1cnc2c(F)cccc2c1 (stereo not shown) [compound 181]	at least 75%	at least 75%
COC(C)c1c(Cl)cccc1Oc1cc2cccc(F)c2nc1C (stereo not shown) [compound 152]	at least 75%	at least 75%
CC(C)(O)c1c(Oc2cnc3c(F)cccc3c2)ccc(F)c1Cl [compound 102]	at least 75%	at least 75%
CC(O)C(C)(C)c1ccccc1Oc1cnc2c(F)cccc2c1 (racemic) [compound 268]	at least 75%	at least 75%
Cc1c(F)cccc1Oc1cnc2c(F)cccc2c1 [compound 284]	at least 75%	at least 75%
CC(C)(C(=O)O)C(C)(C)c1ccccc1Oc1cnc2ccccc2c1 [compound 249]	at least 75%	at least 75%
